Results published in PubChem BioAssay AID286 (DTP/NCI, 2004).
The list shows only some results of the screen, not a fair sample: it gathers tests that were run many times, whatever their T/C, doses with no T/C, and many T/C values between a quarter and a half above the control. Other doses and runs of a compound stand elsewhere. T/C is the treated group as % of the vehicle group. Some entries give survivors of the animals treated and no T/C: the source holds a T/C of zero for them, seemingly a mark for toxic or unscored doses. Some survivor counts are full or nearly so, which does not show that the dose was tolerated: survival well below the control is almost never listed, so the zero probably covers shortened survival too. Counts of survivors are from the toxicity check (mostly the fifth day) where no day follows; animals may have died later. Schedule codes are those of the source, read here as Q, the interval in days (D) or hours (H), X, the number of doses. Some doses were run more than once; the values are given in rising order. Some structures stand for samples that the source files as different forms (salt, stereo form or complex); doses refer to the form tested. For survival time, the PubChem record calls one and a half times the control and up active, and a quarter to a half above the control has no call in these data; cut-offs in other NCI protocols can differ. Some T/C values carry the count of animals alive at the toxicity check (mostly the fifth day); without a count, all were alive then. Counts like (3×) give the number of equal values in this list.

Tested on: BDF1 mice, M5076 sarcoma ip, median survival T/C
Assay: NCI In Vivo Anticancer Drug Screen. Data for tumor model Sarcoma M5076 (intraperitoneal) in B6D2F1 (BDF1) mice
Settings: T/C endpoint: median survival time, higher T/C = longer survival
Procedure: The antitumor activity of compounds was measured in mice bearing transplantable tumors. Survival or tumor size were measured and the results are expressed as the measurement made in the treated group (T) divided by the measurement made in the vehicle treated control group (C). The tumor model used in this assay is Sarcoma M5076 (intraperitoneal) in B6D2F1 (BDF1) mice

[1] = dose: 60.0 mg/kg/injection, schedule: Q04DX005 (ip), vehicle: saline
[2] = dose: 120.0 mg/kg/injection, schedule: Q04DX004 (ip), vehicle: saline
[3] = dose: 120.0 mg/kg/injection, schedule: Q04DX005 (ip), vehicle: saline

COC(=O)[C@@]12OC[C@]34[C@H]([C@@H](O)[C@@H]1O)[C@@]1(C)CC(=O)C(O)=C(C)[C@@H]1C[C@H]3OC(=O)[C@H](OC(=O)/C=C(\C)C(C)C)[C@@H]24
T/C (dose: 0.25 mg/kg/injection, schedule: Q04DX004 (ip), vehicle: saline): 95, 103, 113, 119, 120 % of control | T/C (dose: 0.25 mg/kg/injection, schedule: Q04DX005 (ip), vehicle: saline): 98, 105, 110, 121, 124 % of control | T/C (dose: 0.5 mg/kg/injection, schedule: Q04DX004 (ip), vehicle: saline): 105, 114, 122, 124, 162 % of control | T/C (dose: 0.5 mg/kg/injection, schedule: Q04DX005 (ip), vehicle: saline): 103, 108, 118, 124 [9 of 10 alive on day 9], 129 % of control | T/C (dose: 1.0 mg/kg/injection, schedule: Q04DX004 (ip), vehicle: saline): 99, 103, 112, 125, 134 % of control | T/C (dose: 1.0 mg/kg/injection, schedule: Q04DX005 (ip), vehicle: saline): 96, 97 [9 of 10 alive on day 9], 131, 139, 140 % of control | T/C (dose: 2.0 mg/kg/injection, schedule: Q04DX004 (ip), vehicle: saline): 99 [8 of 10 alive on day 9], 118, 145, 147, 156 % of control | T/C (dose: 2.0 mg/kg/injection, schedule: Q04DX005 (ip), vehicle: saline): 113, 117, 131, 144, 156 % of control

COC(=O)NC1C(C)OC(OC2C/C=C(/C)C3C=CC4C(OC5CC(OC6CCC(OC7CC(O)C(OC8CCC(O)C(C)O8)C(C)O7)C(C)O6)C(OC(C)=O)C(C)O5)C(C)CC(C)C4C3(C)/C(O)=C3/C(=O)OC4(CC(C=O)=CC(O)C4/C=C\2C)C3=O)CC1(C)[N+](=O)[O-] (stereo not given)
survivor count (dose: 20.0 mg/kg/injection, schedule: Q04DX004 (ip), vehicle: water): 7 of 10 on day 14 | survivor count (dose: 40.0 mg/kg/injection, schedule: Q04DX004 (ip), vehicle: water): 0 of 10 on day 14

CCOC(=O)C(N)CSC(=O)NC (stereo not given)
survivor count (dose: 1200.0 mg/kg/injection, schedule: Q04DX004 (ip), vehicle: saline): 0 of 10 on day 14

C[C@@](O)(/C=C/[C@H]1CC=CC(=O)O1)[C@@H](C[C@@H](O)\C=C/C=C\C=C\CO)OP(=O)(O)O
T/C (dose: 16.0 mg/kg/injection, schedule: Q01DX009 (ip), vehicle: water): 127 % of control

CCC(C)C(N)C(=O)NC(CC(N)=O)C(=O)NC(CC(C)C)C(=O)NC(CCCCN)C(=O)NC(C)C(=O)NC(CC(C)C)C(=O)NC(C)C(=O)NC(C)C(=O)NC(CC(C)C)C(=O)NC(C)C(=O)NC(CCCCN)C(=O)NC(CCCCN)C(=O)NC(C(=O)NC(CC(C)C)C(N)=O)C(C)CC (stereo not given)
survivor count (dose: 25.0 mg/kg/injection, schedule: Q01DX009 (ip), vehicle: Klucel (hydroxypropylcellulose) (HPC)): 0 of 10 on day 9

CN(C)CCN1C(=O)c2cccc3cc(N)cc(c23)C1=O
T/C (dose: 36.0 mg/kg/injection, schedule: Q04DX004 (ip), vehicle: acid diluted with saline): 139 % of control | survivor count (dose: 72.0 mg/kg/injection, schedule: Q04DX004 (ip), vehicle: acid diluted with saline): 5 of 10 on day 14

CC(=O)OCc1cc(=O)n(C)c2c3c4c(cc12)c(C)cc(=O)n4CO3
T/C (dose: 10.0 mg/kg/injection, schedule: Q01DX009 (ip), vehicle: Klucel (hydroxypropylcellulose) (HPC)): 141 % of control | T/C (dose: 40.0 mg/kg/injection, schedule: Q04DX005 (ip), vehicle: Klucel (hydroxypropylcellulose) (HPC)): 127 % of control | survivor count (dose: 80.0 mg/kg/injection, schedule: Q01DX009 (ip), vehicle: Klucel (hydroxypropylcellulose) (HPC)): 0 of 10 on day 9 | survivor count (dose: 160.0 mg/kg/injection, schedule: Q01DX009 (ip), vehicle: Klucel (hydroxypropylcellulose) (HPC)): 0 of 10 on day 9 | survivor count (dose: 160.0 mg/kg/injection, schedule: Q04DX005 (ip), vehicle: Klucel (hydroxypropylcellulose) (HPC)): 10 of 10 on day 9 | survivor count (dose: 320.0 mg/kg/injection, schedule: Q04DX005 (ip), vehicle: Klucel (hydroxypropylcellulose) (HPC)): 10 of 10 on day 9

CCOC(=O)Nc1cc2c(c(N)n1)N=C(CN(C)c1ccc(OC)cc1)CN2
T/C (dose: 25.0 mg/kg/injection, schedule: Q01DX001 (ip), vehicle: Klucel (hydroxypropylcellulose) (HPC)): 148 % of control | survivor count (dose: 50.0 mg/kg/injection, schedule: Q01DX001 (ip), vehicle: Klucel (hydroxypropylcellulose) (HPC)): 4 of 10 on day 14 | survivor count (dose: 75.0 mg/kg/injection, schedule: Q01DX001 (ip), vehicle: Klucel (hydroxypropylcellulose) (HPC)): 0 of 10 on day 14

CC(=O)N(C)c1ccc(Nc2cc(C)[nH]c3ccc4ncnc4c23)cc1
T/C (dose: 10.0 mg/kg/injection, schedule: Q04DX004 (ip), vehicle: saline): 125 % of control | T/C (dose: 20.0 mg/kg/injection, schedule: Q04DX004 (ip), vehicle: saline): 138 % of control | T/C (dose: 40.0 mg/kg/injection, schedule: Q04DX004 (ip), vehicle: saline): 133 % of control | T/C (dose: 80.0 mg/kg/injection, schedule: Q04DX004 (ip), vehicle: saline): 139 % of control | survivor count (dose: 160.0 mg/kg/injection, schedule: Q04DX004 (ip), vehicle: saline): 1 of 8 on day 9

CSC1SCC2C(=O)N(C)C(C(C)C)C(=O)OCC(NC(=O)c3cnc4ccccc4n3)C(=O)NC(C)C(=O)N(C)C1C(=O)N(C)C(C(C)C)C(=O)OCC(NC(=O)c1cnc3ccccc3n1)C(=O)NC(C)C(=O)N2C (stereo not given)
T/C (dose: 12.5 micrograms/kg/injection, schedule: Q01DX009 (ip), vehicle: saline with Tween-80): 136 % of control | survivor count (dose: 200.0 micrograms/kg/injection, schedule: Q01DX009 (ip), vehicle: saline with Tween-80): 5 of 10

O=c1[nH]cc(F)c(=O)[nH]1
T/C (dose: 13.0 mg/kg/injection, schedule: Q04DX004 (ip), vehicle: saline): 135 % of control | T/C (dose: 15.0 mg/kg/injection, schedule: Q04DX004 (ip), vehicle: saline): 103, 109, 111, 116 % of control | T/C (dose: 15.0 mg/kg/injection, schedule: Q04DX005 (ip), vehicle: saline): 104, 115, 116, 125 % of control | T/C (dose: 24.0 mg/kg/injection, schedule: Q01DX009 (ip), vehicle: saline): 127 % of control | T/C (dose: 30.0 mg/kg/injection, schedule: Q04DX004 (ip), vehicle: saline): 107 [9 of 10 alive on day 9], 109, 111, 122 % of control | T/C (dose: 30.0 mg/kg/injection, schedule: Q04DX005 (ip), vehicle: saline): 108, 113, 120, 125 % of control | T/C (dose: 36.0 mg/kg/injection, schedule: Q01DX009 (ip), vehicle: saline): 132 % of control | T/C (dose: 36.0 mg/kg/injection, schedule: Q04DX004 (ip), vehicle: saline): 136 % of control [8 of 9 alive] | T/C (dose: 50.0 mg/kg/injection, schedule: Q04DX005 (ip), vehicle: saline): 148 % of control | T/C (dose: 60.0 mg/kg/injection, schedule: Q04DX004 (ip), vehicle: saline, evaluated on day 5): 141 % of control | T/C (dose: 60.0 mg/kg/injection, schedule: Q04DX004 (ip), vehicle: saline, evaluated on day 75): 122, 127, 130, 133 % of control | T/C [1]: 128 (2×) and 130 % of control [9 of 10 alive on day 9] | survivor count [1]: 10 of 10 on day 9 | survivor count (dose: 100.0 mg/kg/injection, schedule: Q04DX005 (ip), vehicle: saline): 10 of 10 | T/C [2]: 144 % of control | survivor count [2]: 5 of 10 on day 9, 9 of 10 on day 9, 10 of 10 on day 9 | T/C [3]: 148 % of control | survivor count [3]: 6 of 10 on day 9, 9 of 10 on day 9, 8 of 8 on day 9

O=C1c2c(O)ccc(O)c2C(=O)c2c(NCCNCCO)ccc(NCCNCCO)c21
survivor count (dose: 4.0 mg/kg/injection, schedule: Q04DX005 (ip), vehicle: saline): 2 of 8 on day 17 | survivor count (dose: 8.0 mg/kg/injection, schedule: Q04DX004 (ip), vehicle: water): 8 of 8 on day 9 | survivor count (dose: 8.0 mg/kg/injection, schedule: Q04DX005 (ip), vehicle: saline): 0 of 8 on day 17

O=Cc1c(O)c2ccccc2[nH]c1=O
survivor count (dose: 200.0 mg/kg/injection, schedule: Q04DX004 (ip), vehicle: saline with Tween-80): 7 of 10 on day 14 | survivor count (dose: 400.0 mg/kg/injection, schedule: Q04DX004 (ip), vehicle: saline with Tween-80): 0 of 10 on day 14

O=NN(CCCl)C(=O)NC1CCCCC1
survivor count (dose: 24.0 mg/kg/injection, schedule: Q01DX005 (sc), vehicle: other): 9 of 10 on day 9
